pKd: −log10 of the molar value. The exact form of at least one protein or probe is not confirmed. Weaker means in comparison with the reference protein, sequence or condition of that experiment. At least one verdict rests on a figure or table, not on a statement of the authors.
Tests used:
PBRM1 BD2 = PBRM1 BD2 (UniProt Q86U86); experiment: NMR titration (1H-15N HSQC); conditions: NMR: 0.1 mM 15N-BD, 50 mM K phosphate pH 7.0, 50 mM KCl, 2 mM DTT, 2 mM EDTA, 7% D2O, 25 C, recombinant protein, residues 178-291, protein details: His tag, TEV-cleaved
PBRM1 BD4 = PBRM1 BD4 (UniProt Q86U86); experiment: NMR titration (1H-15N HSQC); conditions: NMR: 0.1 mM 15N-BD, 50 mM K phosphate pH 7.0, 50 mM KCl, 2 mM DTT, 2 mM EDTA, 7% D2O, 25 C; recombinant protein; residues 496-637; protein details: His tag, TEV-cleaved

Chains of the proteins cited; added tags and fusions are not shown. Residues count along the entry.
UniProt Q86U86, 178-291: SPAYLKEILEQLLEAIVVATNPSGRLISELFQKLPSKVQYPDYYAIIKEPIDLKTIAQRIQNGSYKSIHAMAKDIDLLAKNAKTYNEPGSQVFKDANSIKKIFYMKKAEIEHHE
UniProt Q86U86, 496-637: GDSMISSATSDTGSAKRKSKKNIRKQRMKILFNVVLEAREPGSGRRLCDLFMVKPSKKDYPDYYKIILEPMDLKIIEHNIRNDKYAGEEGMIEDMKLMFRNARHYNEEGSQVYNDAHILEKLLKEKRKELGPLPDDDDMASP

| Sequence | binding result (PBRM1 BD2) | binding result (PBRM1 BD4) | pKd (PBRM1 BD2; limit from legend: Kd below 1/10 of protein concentration (0.1 mM)) |
| --- | --- | --- | --- |
| ACACACACACACA [ssRNAII] | binds more weakly | binds more weakly | – |
| GGCAUCGUGC / GCACGAUGCC [dsRNAIV (no loop)] | – | – | > 5.00 |
